Values joined by “and” are separate entries in the source; they are usually repeats but may differ in a detail not shown here. Equal values may be shown once. The campaign covered roughly 300,000 compounds. About 3,700 (1.2%) were called active. This list was built around the results that the source calls inconclusive (neither active nor inactive); the mix of calls is not that of the screen. The call rests on the fitted dose curve; tested in HEK293 cells. Potencies beside an inconclusive call are fits to weak or partial responses and may not hold up.
Experiment: qHTS for Inhibitors of binding or entry into cells for Lassa Virus; further: nearly all actives have a fitted effect of over 50% in size
Conditions: Lassa virus pseudotype entry inhibition, cell reporter; series mostly up to 37.9 µM
Potency means the concentration at half of the fitted maximal effect.

Row | Compound | Potency
1 | CCOC(=O)c1cnc2ccc(OCC)cc2c1N1CCN(c2ccccc2OC)CC1 | inconclusive: 11.2 µM [inhibitor, partial curve, poor fit]
2 | N=c1n(CCN2CCCCC2)c2ccccc2n1CC(O)c1cccc(Br)c1 (stereo unspecified) | inconclusive: 35.5 µM [inhibitor, single point]
3 | CCOC(=O)Cn1nnnc1CN(Cc1ccc(OC)cc1)Cc1cc2cc(CC)ccc2[nH]c1=O | inconclusive: 9.2 µM [inhibitor, partial curve]
4 | S=C(NCc1ccc(Cl)cc1)NN1CCOCC1 | inconclusive: 12.6 µM [inhibitor, partial curve]
5 | O=C(N/N=C/c1ccc(O)cc1)c1ccc(COc2cc(Cl)ccc2Cl)o1 | inconclusive: 3.98 µM [inhibitor, partial curve]
6 | C=CCn1c(SC)nnc1C1COc2ccccc2O1 (stereo unspecified) | inconclusive: 20 µM [inhibitor, single point]
7 | CC(=O)NC1=NN(C(C)=O)C(c2cccc([N+](=O)[O-])c2)S1 (stereo unspecified) | inactive
8 | CCOc1ccc(NC(=O)/C(C=Nc2ccccc2)=C(\C)O)cc1 | inconclusive: 1.26 µM [inhibitor, single point]
9 | CC(=O)N1CCOc2ccc(S(=O)(=O)NCCc3ccccc3)cc21 | inconclusive: 11.2 µM [inhibitor, single point]
10 | Cc1ccc(S(=O)(=O)NN2C(=O)/C(=C/c3ccc(C(=O)O)cc3)SC2=S)cc1 | inconclusive: 3.16 µM [inhibitor, single point]
11 | CC1=C(C#N)C(/C=N/OCc2ccc(F)cc2Cl)CC(=O)N1 (stereo unspecified) | inconclusive: 35.5 µM [inhibitor, partial curve, poor fit]
12 | COC(=O)c1ccc(C(=O)N=c2sccn2C)cc1 | inactive
13 | COc1ccc(S(=O)(=O)N2CCOCC2)cc1NC(=O)CSc1ccccc1 | inactive
14 | CCOc1ccc(Nc2nc(N3CCCC3)nc(N3CCN(c4ccc(OC)cc4)CC3)n2)cc1 | inactive
15 | O=C(c1ccc(NS(=O)(=O)c2cccc(F)c2)cc1)N1CCCC1 | inactive
16 | CC1(C)CC(=O)C2=C(C1)Oc1ncn(Cc3ccco3)c(=N)c1C2c1ccccc1 (stereo unspecified) | inactive
17 | Cc1ccc(-n2ncc(C(=O)NCCCN3CCCCC3)c2C2CCN(C(=O)OC(C)(C)C)CC2)cc1 | inconclusive: 1.58 µM [inhibitor, partial curve, poor fit]
18 | Cc1nc2ccccc2c(=O)n1/N=C/c1ccccc1Cl | inconclusive: 1 µM [activator, full curve, poor fit]
19 | COc1ccc(C2C(C#N)=C(SCC(=O)Nc3ccc(C)cc3)NC3=C2C(=O)CC(C)(C)C3)cc1 (stereo unspecified) | inconclusive: 15.8 µM [inhibitor, single point]
20 | COc1c(C)cccc1C(=O)Nc1ccc(N2CCN(C(=O)c3ccccc3C)CC2)cc1 | inconclusive: 35.5 µM [inhibitor, single point]
21 | Cc1ccc(OCC(O)Cn2c(=N)n(CCN3CCCCC3)c3ccccc32)cc1 (stereo unspecified) | inconclusive: 35.5 µM [inhibitor, single point] and inconclusive: 29.1 µM [inhibitor, single point]
22 | O=C(c1ccccc1)N1CCN(C(=O)N2CCOCC2)CC1 | inactive

Row | Compound | Potency
23 | COc1ccc(/C=C2\CCCC3C2=NN(C(=O)c2scnc2C)C3c2ccc(OC)c(OC)c2)cc1OC (stereo unspecified) | active: 5.17 µM
24 | CCc1ccc(-c2csc(NC(=O)c3cccnc3)n2)cc1 | inconclusive: 13 µM [inhibitor, partial curve, poor fit]
25 | CCN1CCN(c2cc(C)c3cc(NC(=O)c4cc(Cl)ccc4OC)ccc3n2)CC1 | inconclusive: 22.4 µM [inhibitor, single point]
26 | COC(=O)c1ccc(C(C2C(=O)CC(C)(C)CC2=O)C2C(=O)CC(C)(C)CC2=O)cc1 | inactive
27 | C=CCNc1nc2c3ccccc3n(C(C)=O)c2s1 | inconclusive: 0.164 µM [activator, full curve, poor fit]
28 | Cc1[nH]c(C)c(S(=O)(=O)NCCc2ccccc2)c1C(=O)N1CCCCC1 | inactive
29 | COc1ccc(S(=O)(=O)N2CCOCC2)cc1NC(=O)CSc1nnc2c(n1)[nH]c1ccccc12 | inconclusive: 5.01 µM [inhibitor, partial curve]
30 | CS(=O)(=O)N(CC(=O)Nc1ccc2c(c1)OCO2)Cc1ccc(Cl)cc1 | inconclusive: 1.41 µM [inhibitor, partial curve, poor fit]
31 | Clc1cccc(N2CCNCC2)c1Cl | inactive
32 | Cc1cccc(CNC(=O)c2cnc3sc(N4CCCCCC4)nn3c2=O)c1 | inconclusive: 1.12 µM [inhibitor, full curve, poor fit]
33 | COc1ccc(-c2nsc(NC(=O)c3oc4cc(C)c(C)cc4c3C)n2)cc1 | inactive
34 | CC(=O)c1ccc(NC(=O)Cn2c(=O)n(Cc3ccco3)c(=O)c3sc4ccccc4c32)cc1 | inactive
35 | CC(COc1ccc(/C=C/c2ccccc2)cc1)[N+](C)(C)C (stereo unspecified) | inconclusive: 10.3 µM [activator, partial curve, poor fit]
36 | Cc1nc(-c2ccccc2)sc1CCNS(=O)(=O)c1ccccc1 | inconclusive: 7.94 µM [inhibitor, partial curve, poor fit]
37 | O=C1CN(C(=O)CNCc2ccccc2Cl)c2ccccc2N1 | inactive
38 | O=C(NCCSc1c(-c2ccccc2)[nH]c2ccccc12)c1ccc(S(=O)(=O)N2CCOCC2)cc1 | inconclusive: 35.5 µM [inhibitor, single point]
39 | COc1ccc(CNC(=O)C(NC(C)=O)C(=O)Nc2ccc(C(C)C)cc2)cc1 (stereo unspecified) | inconclusive: 4.47 µM [inhibitor, partial curve, poor fit]
40 | COc1ccc(C(=O)Nc2ccc(N3CCCC3)cc2)cc1OC | inactive
41 | CN1CCc2c(sc3nc(NN)n(Cc4ccccc4)c(=O)c23)C1 | inactive
42 | CCc1cc[n+](/C(C(=S)Nc2cccc(C)c2)=C(/[O-])c2ccc(C)c([N+](=O)[O-])c2)cc1 | inconclusive: 35.5 µM [activator, single point]
43 | C=CCN=C1NN=C(c2cc(C)n(CCOC)c2C)CS1 | inconclusive: 6.51 µM [inhibitor, full curve, poor fit]
44 | Cc1nn(CCCC(=O)NCCc2ccccc2)c(C)c1[N+](=O)[O-] | inactive

Single entries from the list.
Value of `CN1CCc2c(sc3nc(NN)n(Cc4ccccc4)c(=O)c23)C1` under Potency: inactive
Value of `COC(=O)c1ccc(C(C2C(=O)CC(C)(C)CC2=O)C2C(=O)CC(C)(C)CC2=O)cc1` under Potency: inactive

Next part:

Row | Compound | Potency
45 | Cc1c(C(=O)Nc2ccccc2)sc2ncn(CC(=O)N3CCCCC3)c(=O)c12 | inconclusive: 7.94 µM [inhibitor, partial curve, poor fit]
46 | CC1CC(C)(C)CC2(C1)NC(=O)N(CC(=O)NCc1ccccc1F)C2=O (stereo unspecified) | inconclusive: 17.8 µM [inhibitor, single point]
47 | COc1ccc(/C=C(\C#N)C(=O)NCc2cccs2)cc1OC | inactive
48 | COc1ccc(Cl)cc1NC(=O)c1ccc2c(c1)CCCN2S(C)(=O)=O | inactive
49 | CCOc1ccc(N/C=C/C(=O)c2ccc3ccccc3c2)c([N+](=O)[O-])c1 | inconclusive: 2.31 µM [activator, full curve]
50 | Cc1ccc(CN2CCCN(Cc3ccccc3C)S2(=O)=O)cc1 | inactive
51 | COc1cc(S(=O)(=O)NCc2ccncc2)c(OC)cc1Cl | inactive
52 | O=C(O)c1cc(-c2ccc(C(F)(F)F)cc2)nc2n[nH]c(-c3ccccc3)c12 | inactive
53 | CCCCn1c(SCC(=O)N2c3ccccc3Sc3ccccc32)nc2c1c(=O)n(C)c(=O)n2C | inconclusive: 15.8 µM [inhibitor, partial curve, poor fit]
54 | COc1cccc(CN2CCN(Cc3cc(OC)c(OC)c(OC)c3)CC2)c1OC | inactive
55 | CC(=O)c1cnc2c(-c3cccc(Br)c3)cnn2c1C | inconclusive: 1.58 µM [activator, partial curve, poor fit]
56 | COc1ccc(C(=O)C2CCCN(Cc3cccc(C)n3)C2)c(OC)c1 (stereo unspecified) | inconclusive: 20.6 µM [inhibitor, single point]
57 | COc1ccccc1NC(=O)N1CCC(c2nc3cc(C)c(C)cc3[nH]2)CC1 | inconclusive: 1.12 µM [inhibitor, partial curve, poor fit]
58 | O=C(CNc1cccc(S(=O)(=O)N2CCCC2)c1)Nc1ccc(F)c(F)c1 | inconclusive: 25.1 µM [inhibitor, partial curve, poor fit]
59 | Cc1cccc(NC(=O)C2CCN(C(=O)NCc3ccccc3)CC2)c1C | inactive
60 | N#Cc1c(NC(=O)CCCC(=O)O)sc2c1CCCCC2 | active: 8.2 µM
61 | O=C(Nc1cccc(C(F)(F)F)c1)Nc1ccc(N2CCCC2)c(S(=O)(=O)Nc2ccccc2Cl)c1 | active: 3.98 µM
62 | Cc1onc(-c2ccccc2Cl)c1C(=O)N(Cc1nc(-c2ccccc2)no1)C1CCCCC1 | inconclusive: 32.6 µM [inhibitor, single point]
63 | COCOCCn1cc(CN2CCS(=O)(=O)N(Cc3ccc(-c4cccc(N(C)C)c4)cc3)C(C)C2=O)nn1 (stereo unspecified) | inconclusive: 3.15 µM [activator, single point]
64 | CCN(C(=O)CSc1cc(-c2ccccc2)c2ccc(OC)cc2n1)C1CCS(=O)(=O)C1 (stereo unspecified) | inconclusive: 35.5 µM [inhibitor, partial curve, poor fit]
65 | CCc1c(C)nc2cc(-c3ccc(OC)c(OC)c3)nn2c1N1CCCC1 | inconclusive: 29.1 µM [inhibitor, single point]
66 | COc1ccc(Cc2nccc3cc(OC)c(OC)cc23)cc1OC | inconclusive: 13 µM [inhibitor, partial curve, poor fit] and inconclusive: 5.8 µM [inhibitor, full curve]

Reference: PubChem BioAssay AID540256 (National Center for Advancing Translational Sciences (NCATS), 2011)
